# Results from patent US9567347B2, “Use of small molecule inhibitors targeting the interaction between RAC GTPase and p67(phox)” (CHILDREN'S HOSPITAL MEDICAL CENTER, priority 2012, dated 2017).
# Some of these results come from one statement about several compounds together.
# Test system: fMLP-activated primary murine neutrophils
# Assay: Nitroblue tetrazolium (NBT) assay
# Assay type: cell-based, mouse
# Settings: 10 μM, FIG. 9
# Experimental: Primary neutrophils from mouse bone marrow were subjected to fMLP stimulation in the presence or absence of various chemicals for 5 min. Cells were stained for NBT activity as previously described in the incorporated materials of Filippi et al. (2004) to reveal relative ROS production.
# To complement the DCFDA based FACS analysis and the luminol chemiluminescence method, nitroblue tetrazolium (NBT) assays were performed in fMLP-activated primary murine neutrophils (FIG. 3C).
# The NBT assay was performed in primary murine neutrophils to measure ROS neutrophil production. […] Each compound was used at 10 μM.
row,SMILES,ROS inhibition (NBT positive cells)
1,Fc1cccc([C@H]2Nc3ccc(F)cc3[C@@H]3OCCC[C@H]23)c1 [Compound 101],have ROS inhibitory activity
2,Fc1cccc([C@@H]2Nc3ccc(Br)cc3[C@@H]3C=CC[C@@H]32)c1 [Compound 102],have ROS inhibitory activity
3,Fc1ccc2c(c1)[C@@H]1C=CC[C@@H]1[C@H](c1ccc(Cl)s1)N2 [Compound 103],have ROS inhibitory activity
4,Fc1cccc([C@@H]2Nc3ccc(F)cc3[C@@H]3OCCC[C@H]23)c1 [Compound 104],have ROS inhibitory activity
5,Fc1cccc([C@H]2Nc3ccc(F)cc3[C@@H]3OCC[C@H]23)c1 [Compound 105],have ROS inhibitory activity
6,Fc1ccc2c(c1)[C@@H]1C=CC[C@@H]1[C@H](c1cccc(Cl)c1)N2 [Compound 106],have ROS inhibitory activity
7,Fc1ccc2c(c1)[C@@H]1C=CC[C@@H]1[C@H](c1cncc(Cl)c1)N2 [Compound 107],have ROS inhibitory activity
8,Fc1cccc([C@@H]2Nc3ccc(F)cc3[C@@H]3OCC[C@H]23)c1 [Compound 108],have ROS inhibitory activity
